Source: ChEMBL document CHEMBL3988442, “University of Dundee, Small-Polar-MMV Screening Library” (2021).

Each number is a percent effect as filed. The record does not define 0% and 100%; most values in the screen are far below 50% and negative numbers occur (in some assays of this library far below -100). Compounds were drawn at random from those tested, without regard to their results.

Mtb growth Cornell: 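Whole-cell assay for inhibitors of Mycobacterium tuberculosis growth, labelled Cornell in the record; the read-out is not stated. The concentration is filed as 10 mM, unlikely as a test dose, so the dose is not known. The record gives no direction; compounds strong in two other growth screens of this library score well above the rest, so higher reads as stronger inhibition. About 53,000 compounds were tested under these conditions; 1.7% (about 900) showed 50% or more at least once.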
Mtb heat-shock: 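Assay on Mycobacterium tuberculosis, filed only as a heat shock assay from Cornell; the read-out is not stated. The concentration is filed as 10 mM, unlikely as a test dose, so the dose is not known. Direction is inferred from retests: higher values go with stronger inhibition. Of about 69,000 compounds tested this way, about 930 (1.4%) reached 50% or more in at least one test.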

- COc1ccc2c(c1)CCCN(C(C)C(=O)NC(N)=O)C2 (configuration not stated) : Mtb growth Cornell: 17.05%; Mtb heat-shock: 18.68%
- CCOc1ccc(CN(CCC#N)CCN2CCOCC2)cc1OC : Mtb growth Cornell: 10.18%; Mtb heat-shock: -19.44%
- Cn1ccnc1CN1CCOCC(Cc2ccccn2)C1 (configuration not stated) : Mtb heat-shock: -2.025%
- O=C(NCC(F)(F)C(F)F)c1cccnc1 : Mtb growth Cornell: 1.234%; Mtb heat-shock: -2.684%
- CCOCCn1c(=O)[nH]c2cc(C(=O)N(C)Cc3nc(C)c[nH]3)ccc21 : Mtb growth Cornell: -0.9699%; Mtb heat-shock: 1.713%
- Cc1cnn(CC(C)NCc2ccc(C#N)cc2F)c1 (configuration not stated) : Mtb growth Cornell: 34.56%; Mtb heat-shock: -22.44%
- [H][C@@]12CS(=O)(=O)C[C@]1([H])N(CC(=O)N(C)C)CCN2c1ncccn1 : Mtb growth Cornell: -1.532%; Mtb heat-shock: 15.94%
- [H][C@]12CCN(C(=O)c3cc(C)on3)CC[C@@]1([H])S(=O)(=O)N(C)C2 : Mtb growth Cornell: 25.4%; Mtb heat-shock: -8.487%
- Cc1nc(C(C)C)sc1CNC(=O)CCCN1CCCCC1 : Mtb growth Cornell: -72.31%; Mtb heat-shock: -17.79%
- CC(C)c1noc(Cn2ncn3cccc3c2=O)n1 : Mtb heat-shock: -12.39%
- Cc1ccc(C(=O)N2CCC3(CCC(C(=O)NCC4CC4)O3)CC2)o1 (configuration not stated) : Mtb growth Cornell: 38.14%; Mtb heat-shock: 3.209%
- CCOc1ncccc1NC(=O)c1sccc1C : Mtb growth Cornell: 1.379%; Mtb heat-shock: 102.4%
- O=C(NCc1cccs1)C1CCN(c2cc(-n3ccnc3)ncn2)CC1 : Mtb growth Cornell: 23.56%; Mtb heat-shock: 9.275%
- COc1ccnc(N2CCN(Cc3ncc(-c4ccccc4)o3)CC2)n1 : Mtb growth Cornell: -35%; Mtb heat-shock: -10.62%
- CN(c1ncc(S(N)(=O)=O)s1)C1CCc2ccccc21 (configuration not stated) : Mtb growth Cornell: 18.83%; Mtb heat-shock: 4.147%
- CSc1[nH]c(=O)c(C(=O)N2CCCC2C2CCCC2)cc1C#N (configuration not stated) : Mtb growth Cornell: 65.7%; Mtb heat-shock: 10.23%
- CN1CCCC1c1cncc(C(=O)NCCN2CCCC2)n1 (configuration not stated) : Mtb growth Cornell: -2.31%; Mtb heat-shock: -15.52%
- Cn1nc(C2CNCCO2)cc1CCOc1cccc(C(F)(F)F)c1 (configuration not stated) : Mtb growth Cornell: 11.79%; Mtb heat-shock: 13.09%
- CCC(=O)N(CCC(=O)O)Cc1ccc(F)c(F)c1 : Mtb growth Cornell: -32.71%; Mtb heat-shock: 5.453%
- COc1cc2c(c(OC)c1OC)CCN(CCN1CCCCC1)CC2 : Mtb growth Cornell: 25.99%; Mtb heat-shock: 0.4455%
- CN(Cc1n[nH]c2c1CCC2)C(=O)c1cc(-c2cccn2C)n[nH]1 : Mtb growth Cornell: -22.17%; Mtb heat-shock: -21.61%
- Cc1cc(CN2CCc3nn(C)c(=O)cc3C2)no1 : Mtb heat-shock: 8.627%
- COc1cccc(C2CCCN2Cc2nnnn2C2CC2)c1 (configuration not stated) : Mtb growth Cornell: 13.6%; Mtb heat-shock: -15.13%
- CC(Nc1c(F)cc(C#N)cc1F)c1cccc(S(N)(=O)=O)c1 (configuration not stated) : Mtb growth Cornell: 7.373%; Mtb heat-shock: 4.575%
- CO[C@@H]1CN(c2ccccc2)S(=O)(=O)[C@@]12CCN(C(C)=O)C2 : Mtb growth Cornell: -50.35%; Mtb heat-shock: 16.02%
- Cc1nc(CNC(=O)N(CCCO)C2CCc3ccccc32)oc1C (configuration not stated) : Mtb heat-shock: -0.8482%
- CN(C)c1ncccc1CNC(=O)NCC(c1cccs1)N(C)C (configuration not stated) : Mtb growth Cornell: -16.31%; Mtb heat-shock: -25.56%
- O=C(CCCc1ccccn1)N1CCC(Nc2cccnn2)CC1 : Mtb heat-shock: -4.573%
- COCCn1c(=O)n(C)c(=O)c2ccc(C3CCC(CN)CC3)nc21.Cl (configuration not stated) : Mtb growth Cornell: 14.29%; Mtb heat-shock: 0%
- CC(C)c1nccn1C1CCCN(C(=O)CCc2cscn2)C1 (configuration not stated) : Mtb growth Cornell: -11.82%; Mtb heat-shock: -7.096%
- CN1CCOC(CNCc2nc(-c3ccco3)no2)C1 (configuration not stated) : Mtb growth Cornell: 17.69%; Mtb heat-shock: -37.32%
- Cc1cc(NCCCNS(C)(=O)=O)nc2ccccc12 : Mtb growth Cornell: 6.172%; Mtb heat-shock: -11.41%
- Cn1cc(N2CCC3(CCN(Cc4nccs4)C3)C2=O)cn1.O=C(O)C(F)(F)F (configuration not stated) : Mtb growth Cornell: 14.62%; Mtb heat-shock: -0.6336%
- [H][C@@]12C[C@@H](Oc3cccnc3)CN1CCN(C(=O)c1ccoc1C)C2 : Mtb heat-shock: -37.66%
- CCn1cc2c(n1)CN(S(=O)(=O)Cc1ccccc1)CC2COC (configuration not stated) : Mtb growth Cornell: -3.055%; Mtb heat-shock: -17.63%
- CC(OCC1CC1)C(=O)Nc1cccc(C(=O)Nc2ccccn2)c1 (configuration not stated) : Mtb growth Cornell: -3.287%; Mtb heat-shock: -14.82%
- CN(C)c1ncc(CNC(=O)Nc2ccccc2C(F)(F)F)n1C : Mtb growth Cornell: 13.3%; Mtb heat-shock: -8.204%
- Cc1cc(C)n(CC(C)NCCN2CCc3ccccc32)n1 (configuration not stated) : Mtb growth Cornell: -5.697%; Mtb heat-shock: 22.05%
- Cc1cc(O)c(OCC(=O)Nc2nc3c(s2)CCCC3)cn1 : Mtb growth Cornell: 14.25%; Mtb heat-shock: -16.24%
- CC(C)OCCCN(CC(=O)N1CCNCC1)C(=O)c1cccc(Cl)c1.O=C(O)C(F)(F)F : Mtb growth Cornell: 15.6%; Mtb heat-shock: -0.6086%
- Cc1nc2ncc3c(=O)n(C)ccc3n2n1 : Mtb growth Cornell: -5.659%; Mtb heat-shock: 4.143%
- C[C@@H]1CN(c2nc3c(cc2C(N)=O)CCC3)C[C@@]1(O)C1CCC1 : Mtb growth Cornell: 35.28%; Mtb heat-shock: 10.86%
- CCc1ncc2c(n1)CN(Cc1cccc(OCC(N)=O)c1)CC2 : Mtb heat-shock: -8.395%
- CC(C)(C)c1cc(CN2CCOC(CCc3ccccc3)C2)n[nH]1 (configuration not stated) : Mtb heat-shock: 29.64%
- CS(=O)(=O)N1CCOC(CNC(=O)c2cccc(C#N)c2)C1 (configuration not stated) : Mtb heat-shock: -11.47%
- CN(CCO)C[C@@H]1CN(C(=O)Cc2ccc3ccccc3c2)C[C@@H]1CO : Mtb growth Cornell: 4.143%; Mtb heat-shock: -23.32%
- O=C(Nc1ccccn1)C1CCN(C(=O)COc2ccccc2F)C1 (configuration not stated) : Mtb growth Cornell: -42.88%; Mtb heat-shock: 16.5%
- Cc1ccc(-c2nc(CC3CCN(C)CC3)no2)cc1N1CCNC1=O : Mtb heat-shock: 6.535%

Some entries from above, unchanged:

{"smiles": "CCc1ncc2c(n1)CN(Cc1cccc(OCC(N)=O)c1)CC2", "Mtb heat-shock": -8.395}
{"smiles": "CC(C)(C)c1cc(CN2CCOC(CCc3ccccc3)C2)n[nH]1", "stereo": "configuration not stated", "Mtb heat-shock": 29.64}
{"smiles": "[H][C@@]12C[C@@H](Oc3cccnc3)CN1CCN(C(=O)c1ccoc1C)C2", "Mtb heat-shock": -37.66}
{"smiles": "CN1CCCC1c1cncc(C(=O)NCCN2CCCC2)n1", "stereo": "configuration not stated", "Mtb growth Cornell": -2.31, "Mtb heat-shock": -15.52}
{"smiles": "COc1ccc2c(c1)CCCN(C(C)C(=O)NC(N)=O)C2", "stereo": "configuration not stated", "Mtb growth Cornell": 17.05, "Mtb heat-shock": 18.68}